# From patent US12502562B2, “Human iPSC-derived brain organoids and uses thereof” (CITY OF HOPE, priority 2020, dated 2025)
# At least one structure is not confirmed: it was looked up by name or label, or the drawing left a doubt.
# System: hiPSC-derived brain organoids
# Test: MEA recording of hiPSC-derived brain organoids with neuronal blockers
# Type: cell-based, human
# Conditions: uninfected brain organoids, blocker 10 μM applied immediately before recording
# Description: Microelectrode Arrays (MEA). Brain organoids at day 45 of differentiation were partially dissociated and seeded onto 12-well transparent MEA plates at three brain organoids per well. Brain organoids were cultured in BrainPhys medium, including 1×B27, 1×N2, 20 ng/ml GDNF, 20 ng/ml BDNF, 500 μg/ml Dibutyryl-cAMP, 1× Glutamax, and 1× NEAA. MEA recordings were performed at 37° C. in a Maestro MEA system with AxIS software using a bandwidth with a filter for 10 Hz to 2.5 kHz cutoff frequencies. Spike detection was performed using an adaptive threshold set to 5.5 times of the standard deviation of the estimated noise on each electrode. For recordings, following a 5-minute resting time in the Maestro instrument, each plate was recorded for 10 minutes to calculate the spike rate per well. When a recording of 5 spikes over the length of 1 minute (5 spikes per minute) was obtained, the electrode was considered active. Individual electrode bursts were identified using an adaptive Poisson surprise algorithm, while network bursts were identified for each well using a non-adaptive algorithm requiring a minimum of 10 spikes with a maximum inter-spike interval of 100 ms. Multielectrode data analysis was performed using the Axion Biosystems NeuralMetrics Tool. Synchrony index was calculated by NeuralMetric Tool with synchrony window set as 20 ms. […]
compound,measurement,value
"CN1CCc2cc3c(cc2[C@H]1[C@@H]1OC(=O)c2c1ccc1c2OCO1)OCO3 [bicuculline, Bicuculline]","spontaneous, synchronized burst and spikes of the neuronal network (MEA)",not
